No constants are given. Whether binding was seen depends on the method and setting. Some binding calls cover weakened binding; strength is not graded here.
B1: CUTA (protein, UniProt O60888 33-179)
chain: RLLLLPRVLLTMASGSPPTQPSPASDSGSGYVPGSVSAAFVTCPNEKVAKEIARAVVEKRLAACVNLIPQITSIYEWKGKIEEDSEVLMMIKTQSSLVPALTDFVRSVHPYEVAEVIALPVEQGNFPYLQWVRQVTESVSDSITVLP
B2: PARP3 (protein, UniProt Q9Y6F1 1-533)
chain: MAPKPKPWVQTEGPEKKKGRQAGREEDPFRSTAEALKAIPAEKRIIRVDPTCPLSSNPGTQVYEDYNCTLNQTNIENNNNKFYIIQLLQDSNRFFTCWNRWGRVGEVGQSKINHFTRLEDAKKDFEKKFREKTKNNWAERDHFVSHPGKYTLIEVQAEDEAQEAVVKVDRGPVRTVTKRVQPCSLDPATQKLITNIFSKEMFKNTMALMDLDVKKMPLGKLSKQQIARGFEALEALEEALKGPTDGGQSLEELSSHFYTVIPHNFGHSQPPPINSPELLQAKKDMLLVLADIELAQALQAVSEQEKTVEEVPHPLDRDYQLLKCQLQLLDSGAPEYKVIQTYLEQTGSNHRCPTLQHIWKVNQEGEEDRFQAHSKLGNRKLLWHGTNMAVVAAILTSGLRIMPHSGGRVGKGIYFASENSKSAGYVIGMKCGAHHVGYMFLGEVALGREHHINTDNPSLKSPPPGFDSVIARGHTEPDPTQDTELELDGQQVVVPQGQPVPCPEFSSSTFSQSEYLIYQESQCRLRYLLEVHL

The chains behind the UniProt entries cited, without tags or fusion partners. Residues count along the entry.
UniProt P16234, residues 24-528: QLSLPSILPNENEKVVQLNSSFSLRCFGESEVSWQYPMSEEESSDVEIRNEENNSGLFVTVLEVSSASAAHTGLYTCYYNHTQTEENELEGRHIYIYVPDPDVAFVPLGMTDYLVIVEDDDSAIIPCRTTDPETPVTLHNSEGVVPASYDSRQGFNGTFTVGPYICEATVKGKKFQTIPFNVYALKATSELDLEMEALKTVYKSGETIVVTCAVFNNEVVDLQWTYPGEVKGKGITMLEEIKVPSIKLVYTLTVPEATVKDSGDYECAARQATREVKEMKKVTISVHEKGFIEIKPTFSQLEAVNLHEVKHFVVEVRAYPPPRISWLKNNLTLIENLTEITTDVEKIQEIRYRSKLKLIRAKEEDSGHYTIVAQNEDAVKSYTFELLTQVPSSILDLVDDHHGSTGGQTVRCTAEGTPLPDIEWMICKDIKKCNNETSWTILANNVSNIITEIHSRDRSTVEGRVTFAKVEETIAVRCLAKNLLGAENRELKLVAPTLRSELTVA
UniProt Q92560: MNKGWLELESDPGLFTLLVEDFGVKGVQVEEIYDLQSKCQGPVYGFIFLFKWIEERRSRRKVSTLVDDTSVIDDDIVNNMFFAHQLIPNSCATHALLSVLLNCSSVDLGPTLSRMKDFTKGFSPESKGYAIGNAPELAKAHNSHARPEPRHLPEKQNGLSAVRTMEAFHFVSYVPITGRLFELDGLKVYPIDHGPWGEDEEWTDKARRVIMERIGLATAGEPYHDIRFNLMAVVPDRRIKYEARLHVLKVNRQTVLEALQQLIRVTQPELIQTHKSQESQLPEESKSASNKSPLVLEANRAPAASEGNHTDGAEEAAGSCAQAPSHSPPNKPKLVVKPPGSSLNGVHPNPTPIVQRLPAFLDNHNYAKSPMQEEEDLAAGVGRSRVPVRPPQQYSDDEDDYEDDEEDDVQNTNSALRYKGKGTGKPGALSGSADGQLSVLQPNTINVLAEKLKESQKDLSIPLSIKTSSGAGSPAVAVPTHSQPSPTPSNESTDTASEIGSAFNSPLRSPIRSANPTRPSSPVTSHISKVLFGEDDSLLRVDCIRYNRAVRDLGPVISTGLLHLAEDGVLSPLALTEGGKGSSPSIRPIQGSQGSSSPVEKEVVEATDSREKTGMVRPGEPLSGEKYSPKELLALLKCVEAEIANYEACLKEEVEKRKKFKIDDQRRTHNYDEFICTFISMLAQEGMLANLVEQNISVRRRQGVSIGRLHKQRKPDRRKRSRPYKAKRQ
UniProt P09429: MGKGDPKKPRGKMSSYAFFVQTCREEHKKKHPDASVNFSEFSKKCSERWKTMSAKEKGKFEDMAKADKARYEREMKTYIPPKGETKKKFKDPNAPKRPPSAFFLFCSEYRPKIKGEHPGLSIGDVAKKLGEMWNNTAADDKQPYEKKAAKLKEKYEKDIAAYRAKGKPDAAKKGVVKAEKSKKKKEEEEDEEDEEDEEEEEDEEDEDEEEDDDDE
UniProt P02768, residues 25-609: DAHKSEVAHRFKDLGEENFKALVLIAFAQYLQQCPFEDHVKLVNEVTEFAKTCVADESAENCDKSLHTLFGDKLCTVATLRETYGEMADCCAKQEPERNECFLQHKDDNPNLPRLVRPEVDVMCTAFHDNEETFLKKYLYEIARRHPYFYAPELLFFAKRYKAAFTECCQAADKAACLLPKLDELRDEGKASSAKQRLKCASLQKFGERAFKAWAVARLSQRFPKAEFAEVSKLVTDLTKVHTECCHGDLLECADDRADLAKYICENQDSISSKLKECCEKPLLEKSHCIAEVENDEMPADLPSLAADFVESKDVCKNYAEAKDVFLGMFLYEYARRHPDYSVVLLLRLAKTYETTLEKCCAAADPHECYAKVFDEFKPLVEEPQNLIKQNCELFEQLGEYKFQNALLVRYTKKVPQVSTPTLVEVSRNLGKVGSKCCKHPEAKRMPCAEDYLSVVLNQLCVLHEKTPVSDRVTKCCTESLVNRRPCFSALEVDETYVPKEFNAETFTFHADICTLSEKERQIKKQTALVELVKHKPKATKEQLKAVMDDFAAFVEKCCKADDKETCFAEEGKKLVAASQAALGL
UniProt P26678: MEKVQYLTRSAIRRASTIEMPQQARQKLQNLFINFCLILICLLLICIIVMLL

Key:
Assay in all cases: pull-down
PDGFRA = PDGFRA (UniProt P16234)
BAP1 = BAP1 (UniProt Q92560)
HMGB1 = HMGB1 (UniProt P09429)

Molecule	binding (BAP1)	also measured
ALB (from UniProt P02768 25-609)		binding (PDGFRA): binds
phospholambin (from UniProt P26678 1-52)	no binding	
B1		binding (HMGB1): binds
B2	binds	

From publication doi:10.1101/459065
